According to patent US20200207836A1:

Biological target: Nluc/AT1 (human)
Assay: BRET, live cells

B1: mCherry/RAGE338-361 (peptide, not shown: large carriers)
chain: LGTLALALGILGGLGTAALLIGVI
- binding: binds

No constants are given. Whether binding was seen depends on the method and setting. Binding can be weak; no strength is given.
